These are yes or no findings as the source states them, for the method shown. Binding seen in cells or lysates may run through a third protein. Here binding means that the protein was enriched with, or labelled near, the bait; the list need not be complete.
Target: insulin receptor (INSR), endogenous in C2C12 myoblasts (mouse (endogenous in C2C12)) (UniProt P15208)
Assay: affinity purification with mass spectrometry; INSR immunoprecipitated from C2C12 myoblast lysates (RIPA buffer) with INSR-alpha antibody NNC0276-3000 covalently conjugated to Dynabeads M-270 Epoxy; cells serum-starved 6 h, then 0 or 2 nM insulin for 15 minutes; INSR knockout C2C12 cells as negative control; LC-MS/MS, MaxLFQ

Sequences of proteins named here, by UniProt entry; tags and fusion partners are left off. A change or cut given only in a name is not applied to a line headed by its entry.
UniProt P15208: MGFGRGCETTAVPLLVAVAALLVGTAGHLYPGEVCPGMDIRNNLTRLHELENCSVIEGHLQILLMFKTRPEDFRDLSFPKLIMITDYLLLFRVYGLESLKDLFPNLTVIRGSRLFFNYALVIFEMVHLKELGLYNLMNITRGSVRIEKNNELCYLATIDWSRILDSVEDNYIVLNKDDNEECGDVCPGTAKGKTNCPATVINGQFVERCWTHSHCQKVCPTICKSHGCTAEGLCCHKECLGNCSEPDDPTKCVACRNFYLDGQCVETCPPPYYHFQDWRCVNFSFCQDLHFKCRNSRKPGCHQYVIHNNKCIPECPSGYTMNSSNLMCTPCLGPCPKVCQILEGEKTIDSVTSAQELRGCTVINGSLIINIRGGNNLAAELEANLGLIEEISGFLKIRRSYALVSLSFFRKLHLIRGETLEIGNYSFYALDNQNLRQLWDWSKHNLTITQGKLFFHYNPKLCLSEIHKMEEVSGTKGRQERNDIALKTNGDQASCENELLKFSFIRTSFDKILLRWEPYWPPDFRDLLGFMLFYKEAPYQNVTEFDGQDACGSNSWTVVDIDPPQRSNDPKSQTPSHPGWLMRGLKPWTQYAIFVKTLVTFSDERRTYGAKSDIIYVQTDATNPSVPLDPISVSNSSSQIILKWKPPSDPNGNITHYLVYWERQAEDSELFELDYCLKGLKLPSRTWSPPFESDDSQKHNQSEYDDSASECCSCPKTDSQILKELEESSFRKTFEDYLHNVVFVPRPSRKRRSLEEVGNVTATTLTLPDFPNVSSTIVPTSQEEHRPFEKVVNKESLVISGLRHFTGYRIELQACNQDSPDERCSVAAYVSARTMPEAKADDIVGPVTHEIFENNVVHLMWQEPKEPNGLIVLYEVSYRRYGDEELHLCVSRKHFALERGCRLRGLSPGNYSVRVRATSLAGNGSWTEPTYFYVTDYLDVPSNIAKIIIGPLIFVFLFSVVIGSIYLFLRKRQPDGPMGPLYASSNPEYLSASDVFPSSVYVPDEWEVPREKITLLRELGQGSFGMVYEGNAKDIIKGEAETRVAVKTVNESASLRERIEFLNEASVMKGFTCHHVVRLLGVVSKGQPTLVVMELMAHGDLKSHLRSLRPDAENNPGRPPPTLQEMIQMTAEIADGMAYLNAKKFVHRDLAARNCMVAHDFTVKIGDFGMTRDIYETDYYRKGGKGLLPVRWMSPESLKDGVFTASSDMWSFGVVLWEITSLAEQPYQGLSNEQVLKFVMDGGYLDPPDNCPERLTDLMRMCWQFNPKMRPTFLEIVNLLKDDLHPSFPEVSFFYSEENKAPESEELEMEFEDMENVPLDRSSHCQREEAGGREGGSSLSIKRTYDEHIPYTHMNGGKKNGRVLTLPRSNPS
UniProt P43276: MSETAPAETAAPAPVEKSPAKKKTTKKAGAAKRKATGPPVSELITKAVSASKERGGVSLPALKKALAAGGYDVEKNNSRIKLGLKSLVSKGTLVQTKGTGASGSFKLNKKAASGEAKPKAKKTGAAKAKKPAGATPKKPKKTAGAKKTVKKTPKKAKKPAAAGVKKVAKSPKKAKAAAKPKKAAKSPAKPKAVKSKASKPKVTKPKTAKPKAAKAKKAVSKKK
UniProt P07356: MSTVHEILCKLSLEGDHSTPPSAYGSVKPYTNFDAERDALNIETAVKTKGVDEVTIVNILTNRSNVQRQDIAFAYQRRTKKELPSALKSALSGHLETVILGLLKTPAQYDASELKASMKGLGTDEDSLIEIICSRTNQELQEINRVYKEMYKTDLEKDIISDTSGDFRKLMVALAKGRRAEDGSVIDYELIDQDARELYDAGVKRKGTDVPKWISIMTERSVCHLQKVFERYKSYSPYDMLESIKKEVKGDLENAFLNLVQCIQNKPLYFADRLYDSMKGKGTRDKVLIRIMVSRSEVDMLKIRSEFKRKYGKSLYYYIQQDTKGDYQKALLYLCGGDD

Row | binding | Substance
1 | binds | HIST1H1B (linker histone) (from UniProt P43276 1-223)
2 | binds | annexin A2 (ANXA2) (from UniProt P07356 1-339)
